From PMC3012730, “The Actinobacillus pleuropneumoniae HMW1C-Like Glycosyltransferase Mediates N-Linked Glycosylation of the Haemophilus influenzae HMW1 Adhesin” (PLoS ONE, 2010) come the findings set out here.

The target of the assay is T1, P55, C-terminal domain of ApHMW1C (tryptic fragment) (Actinobacillus pleuropneumoniae) (UniProt A3N2T3).
T1 sequence: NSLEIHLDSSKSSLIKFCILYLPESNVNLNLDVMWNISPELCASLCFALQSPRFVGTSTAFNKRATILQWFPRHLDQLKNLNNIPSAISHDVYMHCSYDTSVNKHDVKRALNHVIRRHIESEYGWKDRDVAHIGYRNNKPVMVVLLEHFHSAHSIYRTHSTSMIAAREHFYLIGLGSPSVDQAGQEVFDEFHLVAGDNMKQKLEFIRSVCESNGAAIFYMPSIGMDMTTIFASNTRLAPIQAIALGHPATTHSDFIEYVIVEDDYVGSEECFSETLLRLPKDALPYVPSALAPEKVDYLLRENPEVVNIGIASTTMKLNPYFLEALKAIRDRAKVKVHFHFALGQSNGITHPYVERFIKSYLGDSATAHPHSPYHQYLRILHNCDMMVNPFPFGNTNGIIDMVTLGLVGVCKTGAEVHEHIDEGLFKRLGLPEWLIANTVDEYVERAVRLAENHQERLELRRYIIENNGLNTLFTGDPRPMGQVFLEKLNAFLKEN
The assay can be described thus: co-purification by chromatography after limited proteolysis; scale-up preparative limited trypsin proteolysis of purified ApHMW1C followed by chromatography; both purified.

Results are given in words; binding and its absence hold for the method and conditions named. In cells and extracts the contact can be indirect. A result given as binding can be weak or reduced; the word gives no strength.

For “P15, N-terminal domain of ApHMW1C (tryptic fragment) (Actinobacillus pleuropneumoniae) (domain or fragment)”, the binding result was “binds”.
